This is an account of results in doi:10.1101/2021.02.18.431813 (bioRxiv, 2021).

The chains behind the UniProt entries cited, without tags or fusion partners. Residues count along the entry.
UniProt Q9HCM2, residues 24-1894: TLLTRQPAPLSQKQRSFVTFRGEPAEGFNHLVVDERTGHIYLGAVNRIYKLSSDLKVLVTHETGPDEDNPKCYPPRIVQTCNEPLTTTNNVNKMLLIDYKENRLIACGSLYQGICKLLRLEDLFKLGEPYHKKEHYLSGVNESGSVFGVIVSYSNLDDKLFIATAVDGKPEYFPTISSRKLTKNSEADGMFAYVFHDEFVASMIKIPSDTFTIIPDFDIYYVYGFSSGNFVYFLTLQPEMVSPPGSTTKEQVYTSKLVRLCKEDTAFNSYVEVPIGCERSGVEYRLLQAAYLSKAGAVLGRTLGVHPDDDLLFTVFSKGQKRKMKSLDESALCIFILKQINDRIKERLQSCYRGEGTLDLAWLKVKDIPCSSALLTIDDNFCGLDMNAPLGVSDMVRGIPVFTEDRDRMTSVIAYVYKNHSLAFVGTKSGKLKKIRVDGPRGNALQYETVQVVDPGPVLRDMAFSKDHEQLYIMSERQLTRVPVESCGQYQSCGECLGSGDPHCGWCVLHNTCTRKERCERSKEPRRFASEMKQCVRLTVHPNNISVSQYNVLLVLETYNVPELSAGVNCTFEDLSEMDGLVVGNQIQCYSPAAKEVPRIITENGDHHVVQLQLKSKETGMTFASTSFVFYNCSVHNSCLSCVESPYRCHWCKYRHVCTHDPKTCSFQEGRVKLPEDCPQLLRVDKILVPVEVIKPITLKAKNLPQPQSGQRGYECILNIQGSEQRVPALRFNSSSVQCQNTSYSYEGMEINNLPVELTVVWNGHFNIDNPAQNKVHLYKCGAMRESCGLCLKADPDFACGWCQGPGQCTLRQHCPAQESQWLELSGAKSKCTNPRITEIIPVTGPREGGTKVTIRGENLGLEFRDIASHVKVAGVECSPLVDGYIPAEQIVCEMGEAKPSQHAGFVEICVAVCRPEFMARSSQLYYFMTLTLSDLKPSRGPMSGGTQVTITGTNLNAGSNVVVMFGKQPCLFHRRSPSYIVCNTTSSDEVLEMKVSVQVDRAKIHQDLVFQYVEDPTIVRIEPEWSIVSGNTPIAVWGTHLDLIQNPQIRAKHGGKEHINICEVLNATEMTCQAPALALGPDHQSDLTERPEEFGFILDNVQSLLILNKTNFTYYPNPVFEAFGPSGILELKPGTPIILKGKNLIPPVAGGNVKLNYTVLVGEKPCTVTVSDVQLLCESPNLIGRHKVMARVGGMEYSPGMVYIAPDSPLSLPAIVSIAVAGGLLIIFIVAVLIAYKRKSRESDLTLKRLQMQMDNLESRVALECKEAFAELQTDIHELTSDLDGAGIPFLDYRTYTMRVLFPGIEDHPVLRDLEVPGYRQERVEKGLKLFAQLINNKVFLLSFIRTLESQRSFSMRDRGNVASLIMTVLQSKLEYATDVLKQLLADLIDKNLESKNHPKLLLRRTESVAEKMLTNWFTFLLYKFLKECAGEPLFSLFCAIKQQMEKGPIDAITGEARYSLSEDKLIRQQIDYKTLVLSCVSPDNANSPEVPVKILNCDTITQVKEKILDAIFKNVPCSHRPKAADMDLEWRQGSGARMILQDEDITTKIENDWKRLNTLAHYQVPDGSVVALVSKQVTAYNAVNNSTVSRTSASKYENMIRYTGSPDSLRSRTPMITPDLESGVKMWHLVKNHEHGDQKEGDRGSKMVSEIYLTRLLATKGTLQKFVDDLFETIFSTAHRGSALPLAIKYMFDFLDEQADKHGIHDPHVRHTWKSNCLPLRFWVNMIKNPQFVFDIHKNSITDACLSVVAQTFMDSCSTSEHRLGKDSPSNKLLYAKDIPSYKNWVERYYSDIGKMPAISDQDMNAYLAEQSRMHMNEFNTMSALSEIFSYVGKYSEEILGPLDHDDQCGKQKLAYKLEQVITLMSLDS
UniProt Q9Y4D7, residues 47-1925: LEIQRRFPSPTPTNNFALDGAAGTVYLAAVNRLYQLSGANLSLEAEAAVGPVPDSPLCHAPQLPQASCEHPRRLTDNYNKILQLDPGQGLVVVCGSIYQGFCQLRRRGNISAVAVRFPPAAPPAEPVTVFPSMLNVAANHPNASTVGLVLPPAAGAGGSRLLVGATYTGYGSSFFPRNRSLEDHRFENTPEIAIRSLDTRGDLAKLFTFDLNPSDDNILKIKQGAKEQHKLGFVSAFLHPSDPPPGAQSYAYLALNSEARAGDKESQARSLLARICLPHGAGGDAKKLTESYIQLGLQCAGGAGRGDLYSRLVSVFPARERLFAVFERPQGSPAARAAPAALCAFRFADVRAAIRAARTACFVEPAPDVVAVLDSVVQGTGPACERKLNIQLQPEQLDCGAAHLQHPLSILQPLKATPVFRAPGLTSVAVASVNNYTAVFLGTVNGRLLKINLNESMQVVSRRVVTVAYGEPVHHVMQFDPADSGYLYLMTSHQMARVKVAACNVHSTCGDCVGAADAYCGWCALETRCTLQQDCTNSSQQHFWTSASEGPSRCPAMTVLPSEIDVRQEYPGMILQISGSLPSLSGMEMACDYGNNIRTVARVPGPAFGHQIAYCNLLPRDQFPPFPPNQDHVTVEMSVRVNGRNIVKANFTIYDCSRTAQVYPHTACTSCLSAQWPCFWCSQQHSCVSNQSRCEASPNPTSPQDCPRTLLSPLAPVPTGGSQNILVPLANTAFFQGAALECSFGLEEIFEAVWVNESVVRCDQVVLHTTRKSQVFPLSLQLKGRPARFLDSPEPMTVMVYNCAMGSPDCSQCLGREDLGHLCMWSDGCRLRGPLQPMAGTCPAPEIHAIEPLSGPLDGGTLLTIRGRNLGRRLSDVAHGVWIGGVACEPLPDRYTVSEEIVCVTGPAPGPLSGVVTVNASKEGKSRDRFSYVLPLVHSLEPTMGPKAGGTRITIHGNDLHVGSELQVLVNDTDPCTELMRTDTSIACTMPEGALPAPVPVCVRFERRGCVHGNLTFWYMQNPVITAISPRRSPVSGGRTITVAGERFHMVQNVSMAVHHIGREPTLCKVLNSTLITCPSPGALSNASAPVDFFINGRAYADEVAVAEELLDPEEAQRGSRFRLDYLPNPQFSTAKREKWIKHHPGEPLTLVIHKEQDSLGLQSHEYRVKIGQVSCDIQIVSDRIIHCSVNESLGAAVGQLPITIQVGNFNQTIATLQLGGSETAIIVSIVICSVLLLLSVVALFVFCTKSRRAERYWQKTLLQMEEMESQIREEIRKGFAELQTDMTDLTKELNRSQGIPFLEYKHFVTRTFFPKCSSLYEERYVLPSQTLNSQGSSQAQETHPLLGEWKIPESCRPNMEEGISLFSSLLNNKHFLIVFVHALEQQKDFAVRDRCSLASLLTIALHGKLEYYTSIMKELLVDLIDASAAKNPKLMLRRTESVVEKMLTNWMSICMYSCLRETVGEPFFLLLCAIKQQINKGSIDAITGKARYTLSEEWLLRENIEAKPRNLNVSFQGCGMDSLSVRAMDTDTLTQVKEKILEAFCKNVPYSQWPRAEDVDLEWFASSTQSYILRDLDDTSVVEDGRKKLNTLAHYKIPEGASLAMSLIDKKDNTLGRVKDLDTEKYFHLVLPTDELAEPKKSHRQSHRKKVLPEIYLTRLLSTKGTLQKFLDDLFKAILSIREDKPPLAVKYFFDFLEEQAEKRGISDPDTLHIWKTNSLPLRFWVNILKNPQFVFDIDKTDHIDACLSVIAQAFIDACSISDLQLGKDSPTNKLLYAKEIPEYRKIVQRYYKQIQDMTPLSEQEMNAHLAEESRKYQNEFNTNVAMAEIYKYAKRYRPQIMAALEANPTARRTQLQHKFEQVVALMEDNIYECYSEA

Assay in all cases: PIE-FCCS
One experiment addresses Plexin A4 (human, UniProt Q9HCM2 24-1894).
The target of experiment [1] is Plexin D1 (human) (UniProt Q9Y4D7).
Experiment [2] shares this target. The source holds these as a separate data set.
Experiment [3] addresses Plexin A2 (human) (UniProt O75051).
For experiment [4] the target is unchanged. This is another data set of the same source.

Read-outs that look alike come from different tables or passages of the source. These are yes or no findings as the source states them, for the method shown. Some entries that bind do so weakly or less than the wild type.

As to “Plexin A4 (from UniProt Q9HCM2 24-1894) (receptor)”, the binding entry with Plexin A4 was “binds”; with Plexin A4 (record 2), “binds”; with Plexin D1 (human) [1], “no binding”; with Plexin D1 (human) [2] it was “no binding”.

B1: Plexin A2 (receptor, human, UniProt O75051 35-1894, looked up)
chain: MPQFSTFHSENRDWTFNHLTVHQGTGAVYVGAINRVYKLTGNLTIQVAHKTGPEEDNKSCYPPLIVQPCSEVLTLTNNVNKLLIIDYSENRLLACGSLYQGVCKLLRLDDLFILVEPSHKKEHYLSSVNKTGTMYGVIVRSEGEDGKLFIGTAVDGKQDYFPTLSSRKLPRDPESSAMLDYELHSDFVSSLIKIPSDTLALVSHFDIFYIYGFASGGFVYFLTVQPETPEGVAINSAGDLFYTSRIVRLCKDDPKFHSYVSLPFGCTRAGVEYRLLQAAYLAKPGDSLAQAFNITSQDDVLFAIFSKGQKQYHHPPDDSALCAFPIRAINLQIKERLQSCYQGEGNLELNWLLGKDVQCTKAPVPIDDNFCGLDINQPLGGSTPVEGLTLYTTSRDRMTSVASYVYNGYSVVFVGTKSGKLKKIRADGPPHGGVQYEMVSVLKDGSPILRDMAFSIDQRYLYVMSERQVTRVPVESCEQYTTCGECLSSGDPHCGWCALHNMCSRRDKCQQAWEPNRFAASISQCVSLAVHPSSISVSEHSRLLSLVVSDAPDLSAGIACAFGNLTEVEGQVSGSQVICISPGPKDVPVIPLDQDWFGLELQLRSKETGKIFVSTEFKFYNCSAHQLCLSCVNSAFRCHWCKYRNLCTHDPTTCSFQEGRINISEDCPQLVPTEEILIPVGEVKPITLKARNLPQPQSGQRGYECVLNIQGAIHRVPALRFNSSSVQCQNSSYQYDGMDISNLAVDFAVVWNGNFIIDNPQDLKVHLYKCAAQRESCGLCLKADRKFECGWCSGERRCTLHQHCTSPSSPWLDWSSHNVKCSNPQITEILTVSGPPEGGTRVTIHGVNLGLDFSEIAHHVQVAGVPCTPLPGEYIIAEQIVCEMGHALVGTTSGPVRLCIGECKPEFMTKSHQQYTFVNPSVLSLNPIRGPESGGTMVTITGHYLGAGSSVAVYLGNQTCEFYGRSMSEIVCVSPPSSNGLGPVPVSVSVDRAHVDSNLQFEYIDDPRVQRIEPEWSIASGHTPLTITGFNLDVIQEPRIRVKFNGKESVNVCKVVNTTTLTCLAPSLTTDYRPGLDTVERPDEFGFVFNNVQSLLIYNDTKFIYYPNPTFELLSPTGVLDQKPGSPIILKGKNLCPPASGGAKLNYTVLIGETPCAVTVSETQLLCEPPNLTGQHKVMVHVGGMVFSPGSVSVISDSLLTLPAIVSIAAGGSLLLIIVIIVLIAYKRKSRENDLTLKRLQMQMDNLESRVALECKEAFAELQTDINELTSDLDRSGIPYLDYRTYAMRVLFPGIEDHPVLRELEVQGNGQQHVEKALKLFAQLINNKVFLLTFIRTLELQRSFSMRDRGNVASLIMTGLQGRLEYATDVLKQLLSDLIDKNLENKNHPKLLLRRTESVAEKMLTNWFAFLLHKFLKECAGEPLFMLYCAIKQQMEKGPIDAITGEARYSLSEDKLIRQQIEYKTLILNCVNPDNENSPEIPVKVLNCDTITQVKEKILDAVYKNVPYSQRPRAVDMDLEWRQGRIARVVLQDEDITTKIEGDWKRLNTLMHYQVSDRSVVALVPKQTSSYNIPASASISRTSISRYDSSFRYTGSPDSLRSRAPMITPDLESGVKVWHLVKNHDHGDQKEGDRGSKMVSEIYLTRLLATKGTLQKFVDDLFETLFSTVHRGSALPLAIKYMFDFLDEQADRHSIHDTDVRHTWKSNCLPLRFWVNVIKNPQFVFDIHKGSITDACLSVVAQTFMDSCSTSEHRLGKDSPSNKLLYAKDIPSYKSWVERYYADIAKLPAISDQDMNAYLAEQSRLHAVEFNMLSALNEIYSYVSKYSEELIGALEQDEQARRQRLAYKVEQLINAMSIES
Turning to B1, the binding entry with Plexin A4, with Plexin A2 (human) [3] and in the experiment with Plexin A2 (human) [4] was “binds” throughout.
